This is one part of the list.
Compound: Cc1cc(ccc1-c1ccccc1)C(=O)N1CCCN(CC1)C(=O)CCl [compound 10]
Experiment: probe-labelled cysteine peptide fold change vs DMSO (competition) (log2 fold change); higher = less target engagement (more negative = stronger competition)
Conditions: THP-1, incubation time: 4 h
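Also: competitive profiling in live THP-1 cells: cysteine peptides tagged with an iodoacetamide desthiobiotin (IA-DTB) probe, intensity after compound treatment relative to DMSO-treated cells.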

Amino acid sequences for entries named in this document (tags omitted). A change or cut given only in a name is not applied to a line headed by its entry.
UniProt P46100: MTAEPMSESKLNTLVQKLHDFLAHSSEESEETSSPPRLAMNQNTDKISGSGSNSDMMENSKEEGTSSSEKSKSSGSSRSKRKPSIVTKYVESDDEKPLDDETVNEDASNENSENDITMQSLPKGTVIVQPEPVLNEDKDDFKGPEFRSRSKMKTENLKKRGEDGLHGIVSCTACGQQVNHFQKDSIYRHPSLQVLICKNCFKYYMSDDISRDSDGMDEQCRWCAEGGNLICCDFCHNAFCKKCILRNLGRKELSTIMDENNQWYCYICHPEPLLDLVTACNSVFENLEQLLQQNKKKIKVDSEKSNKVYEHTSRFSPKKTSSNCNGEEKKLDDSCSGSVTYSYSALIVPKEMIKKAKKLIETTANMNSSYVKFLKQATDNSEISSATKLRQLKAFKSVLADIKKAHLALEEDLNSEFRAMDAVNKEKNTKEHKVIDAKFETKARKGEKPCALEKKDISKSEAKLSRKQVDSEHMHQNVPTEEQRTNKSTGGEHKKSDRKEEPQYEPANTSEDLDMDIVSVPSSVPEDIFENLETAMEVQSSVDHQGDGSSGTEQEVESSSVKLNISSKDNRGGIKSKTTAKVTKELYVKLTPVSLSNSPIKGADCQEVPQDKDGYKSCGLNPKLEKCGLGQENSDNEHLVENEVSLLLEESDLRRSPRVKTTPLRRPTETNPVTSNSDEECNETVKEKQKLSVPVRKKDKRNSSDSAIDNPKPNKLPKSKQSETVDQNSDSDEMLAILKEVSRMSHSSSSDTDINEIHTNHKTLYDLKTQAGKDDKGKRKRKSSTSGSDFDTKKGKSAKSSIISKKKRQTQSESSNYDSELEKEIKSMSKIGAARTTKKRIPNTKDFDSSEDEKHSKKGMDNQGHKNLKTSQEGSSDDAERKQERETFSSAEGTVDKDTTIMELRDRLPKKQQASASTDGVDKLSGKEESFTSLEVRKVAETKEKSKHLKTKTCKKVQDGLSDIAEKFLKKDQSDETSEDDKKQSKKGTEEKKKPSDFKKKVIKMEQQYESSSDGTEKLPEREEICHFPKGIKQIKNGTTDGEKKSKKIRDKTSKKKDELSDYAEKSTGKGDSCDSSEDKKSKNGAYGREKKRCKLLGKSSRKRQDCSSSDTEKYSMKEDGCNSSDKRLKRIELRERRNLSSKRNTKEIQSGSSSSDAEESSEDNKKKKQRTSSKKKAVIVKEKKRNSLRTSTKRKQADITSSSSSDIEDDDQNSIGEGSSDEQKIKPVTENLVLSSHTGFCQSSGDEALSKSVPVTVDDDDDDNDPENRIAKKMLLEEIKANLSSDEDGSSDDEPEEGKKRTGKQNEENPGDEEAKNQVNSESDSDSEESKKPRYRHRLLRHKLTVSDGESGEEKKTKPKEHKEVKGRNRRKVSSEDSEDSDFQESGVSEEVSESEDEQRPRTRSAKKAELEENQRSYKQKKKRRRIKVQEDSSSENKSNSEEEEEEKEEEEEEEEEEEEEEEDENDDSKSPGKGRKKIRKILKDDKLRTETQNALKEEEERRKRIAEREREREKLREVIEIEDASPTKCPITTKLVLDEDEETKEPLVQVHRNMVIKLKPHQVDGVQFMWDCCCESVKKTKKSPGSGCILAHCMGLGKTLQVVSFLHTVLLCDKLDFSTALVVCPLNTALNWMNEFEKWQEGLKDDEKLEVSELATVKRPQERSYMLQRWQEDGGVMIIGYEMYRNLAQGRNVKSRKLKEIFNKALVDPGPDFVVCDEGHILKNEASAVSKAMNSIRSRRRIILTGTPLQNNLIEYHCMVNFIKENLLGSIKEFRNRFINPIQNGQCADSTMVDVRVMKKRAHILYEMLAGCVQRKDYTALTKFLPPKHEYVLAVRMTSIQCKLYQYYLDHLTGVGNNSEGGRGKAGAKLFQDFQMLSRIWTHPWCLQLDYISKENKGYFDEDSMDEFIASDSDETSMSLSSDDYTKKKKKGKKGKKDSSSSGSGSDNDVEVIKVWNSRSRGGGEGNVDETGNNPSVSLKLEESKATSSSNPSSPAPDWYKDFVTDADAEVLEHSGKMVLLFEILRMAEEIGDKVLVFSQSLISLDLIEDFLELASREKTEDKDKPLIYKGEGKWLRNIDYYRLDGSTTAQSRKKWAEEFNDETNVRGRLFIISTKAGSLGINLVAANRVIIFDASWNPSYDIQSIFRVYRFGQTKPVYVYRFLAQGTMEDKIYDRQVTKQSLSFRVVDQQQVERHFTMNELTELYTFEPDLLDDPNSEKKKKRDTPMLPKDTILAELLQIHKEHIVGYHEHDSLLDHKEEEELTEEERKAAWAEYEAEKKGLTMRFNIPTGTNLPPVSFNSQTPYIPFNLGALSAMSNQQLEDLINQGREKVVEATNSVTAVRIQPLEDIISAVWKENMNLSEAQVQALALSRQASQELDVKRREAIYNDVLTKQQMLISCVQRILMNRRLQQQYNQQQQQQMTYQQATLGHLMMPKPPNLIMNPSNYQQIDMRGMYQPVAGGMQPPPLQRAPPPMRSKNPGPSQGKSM
UniProt Q13315: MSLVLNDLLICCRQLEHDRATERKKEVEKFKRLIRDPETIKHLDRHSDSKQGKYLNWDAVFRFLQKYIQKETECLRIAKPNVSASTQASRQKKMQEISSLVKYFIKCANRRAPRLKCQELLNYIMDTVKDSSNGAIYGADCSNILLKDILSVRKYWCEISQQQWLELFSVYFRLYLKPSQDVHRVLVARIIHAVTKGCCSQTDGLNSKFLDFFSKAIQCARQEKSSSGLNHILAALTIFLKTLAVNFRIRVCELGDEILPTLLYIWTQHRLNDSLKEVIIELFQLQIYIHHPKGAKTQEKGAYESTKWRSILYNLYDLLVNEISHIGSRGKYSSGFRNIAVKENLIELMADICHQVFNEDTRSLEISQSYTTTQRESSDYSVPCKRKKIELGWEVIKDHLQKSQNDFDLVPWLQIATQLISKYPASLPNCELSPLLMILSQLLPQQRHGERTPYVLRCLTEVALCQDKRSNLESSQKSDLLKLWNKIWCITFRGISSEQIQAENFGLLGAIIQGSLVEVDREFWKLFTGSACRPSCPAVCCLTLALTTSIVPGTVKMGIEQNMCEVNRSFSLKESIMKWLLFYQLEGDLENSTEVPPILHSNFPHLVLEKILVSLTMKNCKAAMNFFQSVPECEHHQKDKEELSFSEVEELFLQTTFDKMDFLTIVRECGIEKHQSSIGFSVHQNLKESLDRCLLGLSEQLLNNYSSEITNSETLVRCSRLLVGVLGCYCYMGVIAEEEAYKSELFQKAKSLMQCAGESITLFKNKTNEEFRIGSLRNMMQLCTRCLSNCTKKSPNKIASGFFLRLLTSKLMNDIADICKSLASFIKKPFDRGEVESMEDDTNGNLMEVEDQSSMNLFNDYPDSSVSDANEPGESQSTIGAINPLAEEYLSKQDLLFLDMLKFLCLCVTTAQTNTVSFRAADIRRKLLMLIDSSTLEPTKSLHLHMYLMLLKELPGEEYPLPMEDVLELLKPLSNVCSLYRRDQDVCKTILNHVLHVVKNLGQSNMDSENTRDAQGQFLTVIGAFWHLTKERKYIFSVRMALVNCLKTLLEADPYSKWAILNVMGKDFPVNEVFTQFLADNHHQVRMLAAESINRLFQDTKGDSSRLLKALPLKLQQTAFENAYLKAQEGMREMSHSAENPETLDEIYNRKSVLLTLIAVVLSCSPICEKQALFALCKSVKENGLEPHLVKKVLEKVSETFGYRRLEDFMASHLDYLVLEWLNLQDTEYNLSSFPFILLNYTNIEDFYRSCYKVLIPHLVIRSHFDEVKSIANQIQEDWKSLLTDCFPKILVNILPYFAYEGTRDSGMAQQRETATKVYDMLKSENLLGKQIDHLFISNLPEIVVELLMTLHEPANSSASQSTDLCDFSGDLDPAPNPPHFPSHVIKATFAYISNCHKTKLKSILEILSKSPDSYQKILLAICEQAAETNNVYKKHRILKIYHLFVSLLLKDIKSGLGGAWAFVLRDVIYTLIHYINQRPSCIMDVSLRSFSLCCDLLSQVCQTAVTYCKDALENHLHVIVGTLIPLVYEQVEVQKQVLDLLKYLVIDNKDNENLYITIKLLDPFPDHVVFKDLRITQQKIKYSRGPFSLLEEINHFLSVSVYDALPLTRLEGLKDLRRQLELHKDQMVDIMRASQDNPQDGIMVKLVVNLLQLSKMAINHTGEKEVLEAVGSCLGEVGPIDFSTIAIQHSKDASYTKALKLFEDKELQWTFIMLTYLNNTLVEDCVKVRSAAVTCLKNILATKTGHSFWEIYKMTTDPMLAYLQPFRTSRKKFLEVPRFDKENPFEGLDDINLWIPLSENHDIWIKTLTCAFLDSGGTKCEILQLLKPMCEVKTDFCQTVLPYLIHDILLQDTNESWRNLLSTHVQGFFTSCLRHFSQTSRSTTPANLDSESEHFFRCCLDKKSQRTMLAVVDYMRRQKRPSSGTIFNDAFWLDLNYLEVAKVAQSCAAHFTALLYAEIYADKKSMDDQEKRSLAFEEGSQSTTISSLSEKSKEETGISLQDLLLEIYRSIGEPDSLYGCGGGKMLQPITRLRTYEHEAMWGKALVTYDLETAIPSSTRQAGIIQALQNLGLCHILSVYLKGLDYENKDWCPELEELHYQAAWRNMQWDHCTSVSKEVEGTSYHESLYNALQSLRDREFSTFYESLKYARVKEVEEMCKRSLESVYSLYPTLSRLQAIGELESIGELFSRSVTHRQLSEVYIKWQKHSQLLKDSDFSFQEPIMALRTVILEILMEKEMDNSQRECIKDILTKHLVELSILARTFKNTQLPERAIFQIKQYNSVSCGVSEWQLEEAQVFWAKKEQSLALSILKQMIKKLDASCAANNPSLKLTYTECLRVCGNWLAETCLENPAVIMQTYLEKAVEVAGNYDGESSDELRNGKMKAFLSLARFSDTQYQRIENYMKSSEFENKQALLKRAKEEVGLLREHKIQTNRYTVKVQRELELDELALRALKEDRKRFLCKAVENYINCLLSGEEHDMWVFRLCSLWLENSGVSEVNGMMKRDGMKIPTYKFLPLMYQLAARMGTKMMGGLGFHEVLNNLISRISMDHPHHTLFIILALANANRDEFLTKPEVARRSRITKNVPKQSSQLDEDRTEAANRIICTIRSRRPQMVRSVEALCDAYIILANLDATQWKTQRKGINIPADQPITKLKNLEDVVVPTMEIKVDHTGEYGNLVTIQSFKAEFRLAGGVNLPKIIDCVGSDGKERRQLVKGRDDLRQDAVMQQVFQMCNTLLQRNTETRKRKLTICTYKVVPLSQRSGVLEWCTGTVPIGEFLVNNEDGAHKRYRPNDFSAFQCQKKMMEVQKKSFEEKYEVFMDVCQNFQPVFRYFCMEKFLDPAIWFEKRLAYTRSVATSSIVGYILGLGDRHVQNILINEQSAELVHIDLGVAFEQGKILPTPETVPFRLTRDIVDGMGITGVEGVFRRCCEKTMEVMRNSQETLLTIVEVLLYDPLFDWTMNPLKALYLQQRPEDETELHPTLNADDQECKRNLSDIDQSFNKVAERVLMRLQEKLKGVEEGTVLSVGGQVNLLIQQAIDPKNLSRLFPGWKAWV
UniProt Q9UI12, whole entry, looked up: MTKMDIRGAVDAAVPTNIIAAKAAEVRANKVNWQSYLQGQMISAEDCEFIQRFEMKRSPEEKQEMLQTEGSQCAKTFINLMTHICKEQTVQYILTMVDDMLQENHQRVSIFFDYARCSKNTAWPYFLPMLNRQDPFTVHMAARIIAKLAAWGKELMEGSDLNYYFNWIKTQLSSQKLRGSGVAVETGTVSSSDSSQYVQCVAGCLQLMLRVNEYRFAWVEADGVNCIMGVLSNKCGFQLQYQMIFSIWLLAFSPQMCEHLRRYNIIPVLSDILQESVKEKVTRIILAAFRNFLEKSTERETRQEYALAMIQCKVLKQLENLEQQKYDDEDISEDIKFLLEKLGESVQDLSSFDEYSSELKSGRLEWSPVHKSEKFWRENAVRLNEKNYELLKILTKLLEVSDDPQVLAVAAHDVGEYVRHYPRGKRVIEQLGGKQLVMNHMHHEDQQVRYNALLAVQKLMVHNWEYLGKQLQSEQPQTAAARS

Row | Target | probe-labelled cysteine peptide fold change (10 µM) | probe-labelled cysteine peptide fold change (50 µM)
1 | ATP2B4_P23634_24_EGDFGCTVMELRK (UniProt P23634) | -0.325 | -0.62
2 | ATRX_P46100_220_DSDGMDEQCR (UniProt P46100) | -0.206 | -0.539
3 | ATF7IP_Q6VMQ6_955_AADSTSQCGK (UniProt Q6VMQ6) | 0.014 | -0.102
4 | ATRX_P46100_1575_LKPHQVDGVQFMWDCCCESVKK (UniProt P46100) | 0.164 | -0.666
5 | ATRX_P46100_1531_CPITTK (UniProt P46100) | -0.402 | -1.05
6 | ATM_Q13315_353_ENLIELMADICHQVFNEDTR (UniProt Q13315) | -0.0111 | 0.367
7 | ATP11B_Q9Y2G3_170_LDGSCHVTTASLDGETNLK (UniProt Q9Y2G3) | -0.0459 | -0.0326
8 | ATM_Q13315_755_SLMQCAGESITLFK (UniProt Q13315) | 0.223 | 0.194
9 | ASCC3_Q8N3C0_366_AGEDLEVSEGLMCFDPK (UniProt Q8N3C0) | -0.425 | -0.157
10 | ASCC2_Q9H1I8_276_HDFCYR (UniProt Q9H1I8) | -0.0234 | 0.0515
11 | ATRX_P46100_235_WCAEGGNLICCDFCHNAFCK (UniProt P46100) | 0.0337 | -0.0739
12 | ATL2_Q8NHH9_293_HIHNCFSNLGCFLLPHPGLK (UniProt Q8NHH9) | -0.0463 | -0.137
13 | ATP6V1H_Q9UI12_85_TFINLMTHICK (UniProt Q9UI12) | 0.139 | -0.26
14 | ATP2B4_P23634_537_TECALLGFVTDLK (UniProt P23634) | -0.201 | -0.0556
15 | ATM_Q13315_564_MGIEQNMCEVNR (UniProt Q13315) | -0.329 | -0.677

Quoted at random: 2 records from the list, in no set order.
Row | Target | probe-labelled cysteine peptide fold change (10 µM) | probe-labelled cysteine peptide fold change (50 µM)
13 | ATP6V1H_Q9UI12_85_TFINLMTHICK (UniProt Q9UI12) | 0.139 | -0.26
8 | ATM_Q13315_755_SLMQCAGESITLFK (UniProt Q13315) | 0.223 | 0.194
